The assay relates to OVCAR8. In words: cell count relative to DMSO vehicle (fold change); higher = more surviving senescent cells (less killing). The following applies: senescence inducer: cisplatin 10 µM 48 h, then 6 d recovery (CP senescent), exposure time 24 h.

Structures can show the parent of a compound that is named as a salt. ± gives the standard deviation of the averaged measurements. Some of the results follow. This data set is noisy: repeats of one test often differ as much as different tests do.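 Cell counts came from imaging DAPI-stained nuclei, excluding as dead any cells lacking phalloidin-stained cytoplasm. Counts per well were normalized to the median vehicle-well count on that plate, and the values were averaged over two replicate plates.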

As to `O=C(/C=C/c1ccc(O)c(O)c1)OCCc1ccccc1`, the cell count runs as follows: (compound dose 1 µM) 1.17 ± 0.29; (compound dose 5 µM) 1.02 ± 0.13.

Consider `CC[C@H](C)C(=O)O[C@H]1CCC=C2C=C[C@H](C)[C@H](CC[C@@H]3C[C@@H](O)CC(=O)O3)[C@H]21` [Mevastatin], for which the cell count by setting is: (compound dose 1 µM) 1.428 ± 0.0057; (compound dose 5 µM) 1.1 ± 0.37.

As to `CC(=O)[C@]1(O)Cc2c(O)c3c(c(O)c2[C@@H](O[C@H]2C[C@H](N)[C@H](O)[C@H](C)O2)C1)C(=O)c1ccccc1C3=O` [Idarubicin (hydrochloride)], the cell count is 0.416 ± 0.11 (compound dose 1 µM) and 0.226 ± 0.14 (compound dose 5 µM).

With `CN(C)c1ncnc2c1ncn2[C@@H]1O[C@H](CO)[C@@H](N)[C@H]1O` [Puromycin aminonucleoside], the cell count reads like this: (compound dose 1 µM) 0.849 ± 0.15; (compound dose 5 µM) 0.837 ± 0.09.

As for `CCCOc1ccn2c(C(C)=O)cc(-c3ccccc3S(C)(=O)=O)c2c1`, the cell count (compound dose 1 µM) came out at 1.12 ± 0.22 and the cell count (compound dose 5 µM) was found to be 1.11 ± 0.23.

With `Cc1nc(=O)c2cc(CN(C)c3ccc(C(=O)N[C@@H](CCC(=O)O)C(=O)O)s3)ccc2[nH]1` [Raltitrexed], the cell count runs as follows: (compound dose 1 µM) 0.898 ± 0.096; (compound dose 5 µM) 0.886 ± 0.21.

With `O=c1c(O[C@@H]2O[C@H](CO)[C@@H](O)[C@H](O)[C@H]2O)c(-c2ccc(O)cc2)oc2cc(O)cc(O)c12` [Astragalin], the cell count is, setting by setting: (compound dose 1 µM) 0.844 ± 0.079; (compound dose 5 µM) 1.03 ± 0.016.

As for `Cn1cc(C2=C(c3coc4ccc(F)cc34)C(=O)NC2=O)c2cc3c(cc21)OCO3`, the cell count (compound dose 1 µM) stood at 1.14 ± 0.16 and the cell count (compound dose 5 µM) was determined as 1.03 ± 0.096.

`COCC[n+]1c2c(n(Cc3cnccn3)c1C)C(=O)c1ccccc1C2=O` [Sepantronium (bromide)]: the cell count is 0.202 ± 0.016 (compound dose 1 µM) and 0.102 ± 0.03 (compound dose 5 µM).

With `CO[C@]1(CC[C@@H](C)CO[C@@H]2O[C@H](CO)[C@@H](O)[C@H](O)[C@H]2O)O[C@H]2C[C@H]3[C@@H]4CC=C5C[C@@H](O[C@@H]6O[C@H](CO)[C@@H](O[C@@H]7O[C@@H](C)[C@H](O)[C@@H](O)[C@H]7O)[C@H](O)[C@H]6O[C@@H]6O[C@@H](C)[C@H](O)[C@@H](O)[C@H]6O)CC[C@]5(C)[C@H]4CC[C@]3(C)[C@H]2[C@@H]1C` [Methyl protodioscin], the cell count came out at 0.632 ± 0.22 (compound dose 1 µM) and 0.139 ± 0.04 (compound dose 5 µM).

Consider `COC(=O)C1=CC[C@@]23CC[C@@H]([C@@](C)(/C=C/C=C(\C)C(=O)O)OC2=O)[C@@]3(OC(C)=O)CC1` [Pseudolaric Acid B], for which the cell count (compound dose 1 µM) was 0.837 ± 0.014 and the cell count (compound dose 5 µM) came out at 0.519 ± 0.055.

For `CN1C(=O)/C(=C2/C(=O)Nc3ccccc32)c2ccccc21` [Meisoindigo], the cell count by setting is: (compound dose 1 µM) 1.23 ± 0.045; (compound dose 5 µM) 1.09 ± 0.11.

In the case of `CN1C(=O)C(C)(C)Oc2c(-c3cn(C)c(=O)c4[nH]ccc34)cc(S(C)(=O)=O)cc21`, the cell count stood at 0.61 ± 0.046 (compound dose 1 µM) and 0.409 ± 0.032 (compound dose 5 µM).

On to `CCOC(=O)Nc1cc(-c2ccc(C)c(NS(C)(=O)=O)c2)nn2c(C)nnc12` [Bromosporine], for which the cell count amounted to 0.725 ± 0.14 (compound dose 1 µM) and 0.715 ± 0.013 (compound dose 5 µM).

For `CCCCCC1CC1CC1CC1CCCCCCCC(=O)O` (stereo not drawn), the cell count by setting is: (compound dose 1 µM) 0.974 ± 0.066; (compound dose 5 µM) 0.804 ± 0.12.

Consider `C[C@@H]1CCN(C(=O)CC#N)C[C@@H]1N(C)c1ncnc2[nH]ccc12` [Tofacitinib], for which the cell count was found to be 1.23 ± 0.2 (compound dose 1 µM) and 1.09 ± 0.17 (compound dose 5 µM).

Regarding `C[C@@H]1CCN(C(=O)CC#N)C[C@@H]1N(C)c1ncnc2[nH]ccc12`, the cell count runs as follows: (compound dose 1 µM) 0.97 ± 0.093; (compound dose 5 µM) 1.17 ± 0.3.

On to `COc1cc(O)c(CC=C(C)C)c(O)c1C(=O)/C=C/c1ccc(O)cc1` [Xanthohumol], for which the cell count is, setting by setting: (compound dose 1 µM) 0.778 ± 0.044; (compound dose 5 µM) 0.9365 ± 0.0021.

As for `CN(C)CCOc1ccc(/C(=C(/CCCl)c2ccccc2)c2ccccc2)cc1` [Toremifene (citrate)], the cell count reads like this: (compound dose 1 µM) 1.14 ± 0.21; (compound dose 5 µM) 1.09 ± 0.17.

`C[C@H]1C[C@H]2[C@@H]3CCC4=CC(=O)C=C[C@]4(C)[C@@]3(F)[C@@H](O)C[C@]2(C)[C@@]1(O)C(=O)CO` [Betamethasone]: the cell count by setting is: (compound dose 1 µM) 1.21 ± 0.033; (compound dose 5 µM) 1.01 ± 0.32.

As for `Cc1noc(C)c1-c1cc(Cl)c(Nc2ccccc2C(=O)NO)c(Cl)c1`, the cell count turned out to be 1.17 ± 0.067 (compound dose 1 µM) and 1.06 ± 0.082 (compound dose 5 µM).

On to `COc1cc2nccc(Oc3ccc(NC(=O)C4(C(=O)Nc5ccc(F)cc5)CC4)cc3)c2cc1OC`, for which the cell count amounted to 1.21 ± 0.14 (compound dose 1 µM) and 1.05 ± 0.45 (compound dose 5 µM).

On to `COc1cc2nccc(Oc3ccc(NC(=O)C4(C(=O)Nc5ccc(F)cc5)CC4)cc3)c2cc1OC` [Cabozantinib malate (XL184)], for which the cell count (compound dose 1 µM) came to 0.939 ± 0.068 and the cell count (compound dose 5 µM) came to 0.694 ± 0.016.

`CCOc1nc2cccc(C(=O)O)c2n1Cc1ccc(-c2ccccc2-c2noc(=O)[nH]2)cc1` [Azilsartan]: the cell count is, setting by setting: (compound dose 1 µM) 0.993 ± 0.049; (compound dose 5 µM) 0.837 ± 0.45.

For `FC1(F)N=C(c2ccc(Cl)cc2)SC1(F)c1ccc(Cl)cc1` (stereo not drawn) [Fluorizoline], the cell count was 0.323 ± 0.014 (compound dose 1 µM) and 0.091 ± 0.059 (compound dose 5 µM).

Regarding `COc1cc(O)cc(O)c1C(=O)/C=C/c1ccccc1` [Cardamonin], the cell count by setting is: (compound dose 1 µM) 0.97 ± 0.034; (compound dose 5 µM) 1.08 ± 0.067.

Turning to `Cc1cnc(NC(=O)C2=C(O)c3ccccc3S(=O)(=O)N2C)s1`, the cell count is, setting by setting: (compound dose 1 µM) 0.975 ± 0.2; (compound dose 5 µM) 0.728 ± 0.32.

`CC(C)Oc1ccc(C(=O)N[C@H](CNC(=O)CN(C)C)Cc2ccc(-c3cn4cccc([C@H](C)O)c4n3)cc2)cc1Cl` came in with a cell count (compound dose 1 µM) of 1.24 ± 0.2 and a cell count (compound dose 5 µM) of 1.08 ± 0.17.

The molecule `COc1ccc(/C=C/C(=O)c2c(O)cc(OC)cc2OC)cc1` [Flavokawain A] came in with a cell count (compound dose 1 µM) of 1.198 ± 0.0064 and a cell count (compound dose 5 µM) of 1.36 ± 0.15.

Consider `C=C(C)[C@@H]1CC[C@]2(C(=O)O)CC[C@]3(C)[C@H](CC[C@@H]4[C@@]5(C)CC[C@H](O)[C@@](C)(CO)[C@@H]5CC[C@]43C)[C@@H]12` [23-Hydroxybetulinic acid], for which the cell count turned out to be 1.1 ± 0.073 (compound dose 1 µM) and 0.975 ± 0.074 (compound dose 5 µM).

Take `CCOc1cc2ncc(-c3cc(N)nc(F)c3)n2cc1S(=O)(=O)C(C)(C)C`: the cell count is, setting by setting: (compound dose 1 µM) 1.01 ± 0.033; (compound dose 5 µM) 0.723 ± 0.026.

For the molecule `OC[C@H]1O[C@@H](n2cnc3c(NCc4ccco4)ncnc32)[C@H](O)[C@@H]1O` [Kinetin riboside], the cell count is, setting by setting: (compound dose 1 µM) 0.843 ± 0.14; (compound dose 5 µM) 0.474 ± 0.043.

Regarding `O=c1cc(-c2ccc(O)c(-c3c(O)cc(O)c4c(=O)cc(-c5ccc(O)cc5)oc34)c2)oc2cc(O)cc(O)c12` [Amentoflavone], the cell count stood at 1.05 ± 0.12 (compound dose 1 µM) and 0.637 ± 0.33 (compound dose 5 µM).

As for `COc1ccccc1S(=O)(=O)Nc1ccc2c(c1)CN(C)C(=O)N2`, the cell count came out at 1.06 ± 0.08 (compound dose 1 µM) and 0.524 ± 0.19 (compound dose 5 µM).

Consider `C=CC(=O)Nc1ccc2ncnc(Nc3cccc(Br)c3)c2c1`, for which the cell count is, setting by setting: (compound dose 1 µM) 1.3 ± 0.07; (compound dose 5 µM) 0.871 ± 0.56.

Take `COc1cc(/C=C(\C#N)C(N)=O)cc(CSc2nc3ccccc3s2)c1O`: the cell count is, setting by setting: (compound dose 1 µM) 1.09 ± 0.18; (compound dose 5 µM) 1.04 ± 0.17.

As to `CNCC[C@H](CSc1ccccc1)Nc1ccc(S(=O)(=O)NC(=O)c2ccc(N3CCN(CC4=C(c5ccc(Cl)cc5)CCC(C)(C)C4)CC3)cc2)cc1S(=O)(=O)C(F)(F)F` [Desmorpholinyl Navitoclax-NH-Me], the cell count worked out at 0.247 ± 0.054 (compound dose 1 µM) and 0.203 ± 0.029 (compound dose 5 µM).

As for `O=C(NOC[C@H](O)CO)c1ccc(F)c(F)c1Nc1ccc(I)cc1F`, the cell count stood at 1.02 ± 0.06 (compound dose 1 µM) and 0.634 ± 0.16 (compound dose 5 µM).

Consider `COc1ccc2c(c1)C(c1ccc(F)cc1)=C(CN1CCCC1)CO2`, for which the cell count by setting is: (compound dose 1 µM) 1.09 ± 0.23; (compound dose 5 µM) 0.919 ± 0.023.

The record behind these values is the supplement of paper PMC12462457.
